The target in test [1] is FANCM (human (endogenous in HeLa)) (UniProt Q8IYD8). The test is described as follows: proximity ligation; Duolink PLA in HeLa cells treated with UVA only (no replication stress).
For test [2] the target is unchanged. The test is described as follows: co-IP; IP with FANCM or MHF1 antibody, western blotting; preimmune serum as control; HU-treated HeLa.
Test [3] concerns the target MHF1 (human (endogenous in HeLa)) (UniProt Q8N2Z9). The description is as above.
Test [4] addresses Flag-tagged FANCM (human) (UniProt Q8IYD8). The test is described as follows: co-IP; Flag antibody purification from HU-treated HEK293 cells stably expressing Flag-FANCM; immunoblotting. On the technique in general: In western blotting, separated proteins are transferred to a membrane and probed.
The target of test [5] is FANCM (human (endogenous in HeLa)) (UniProt Q8IYD8). In words: SEC; Superose 6 gel filtration of soluble chromatin-bound proteins of HU-treated HeLa cells; fractions immunoblotted. (In gel filtration, larger molecules generally elute earlier.)

The chains behind the UniProt entries cited, without tags or fusion partners.
UniProt Q8IYD8: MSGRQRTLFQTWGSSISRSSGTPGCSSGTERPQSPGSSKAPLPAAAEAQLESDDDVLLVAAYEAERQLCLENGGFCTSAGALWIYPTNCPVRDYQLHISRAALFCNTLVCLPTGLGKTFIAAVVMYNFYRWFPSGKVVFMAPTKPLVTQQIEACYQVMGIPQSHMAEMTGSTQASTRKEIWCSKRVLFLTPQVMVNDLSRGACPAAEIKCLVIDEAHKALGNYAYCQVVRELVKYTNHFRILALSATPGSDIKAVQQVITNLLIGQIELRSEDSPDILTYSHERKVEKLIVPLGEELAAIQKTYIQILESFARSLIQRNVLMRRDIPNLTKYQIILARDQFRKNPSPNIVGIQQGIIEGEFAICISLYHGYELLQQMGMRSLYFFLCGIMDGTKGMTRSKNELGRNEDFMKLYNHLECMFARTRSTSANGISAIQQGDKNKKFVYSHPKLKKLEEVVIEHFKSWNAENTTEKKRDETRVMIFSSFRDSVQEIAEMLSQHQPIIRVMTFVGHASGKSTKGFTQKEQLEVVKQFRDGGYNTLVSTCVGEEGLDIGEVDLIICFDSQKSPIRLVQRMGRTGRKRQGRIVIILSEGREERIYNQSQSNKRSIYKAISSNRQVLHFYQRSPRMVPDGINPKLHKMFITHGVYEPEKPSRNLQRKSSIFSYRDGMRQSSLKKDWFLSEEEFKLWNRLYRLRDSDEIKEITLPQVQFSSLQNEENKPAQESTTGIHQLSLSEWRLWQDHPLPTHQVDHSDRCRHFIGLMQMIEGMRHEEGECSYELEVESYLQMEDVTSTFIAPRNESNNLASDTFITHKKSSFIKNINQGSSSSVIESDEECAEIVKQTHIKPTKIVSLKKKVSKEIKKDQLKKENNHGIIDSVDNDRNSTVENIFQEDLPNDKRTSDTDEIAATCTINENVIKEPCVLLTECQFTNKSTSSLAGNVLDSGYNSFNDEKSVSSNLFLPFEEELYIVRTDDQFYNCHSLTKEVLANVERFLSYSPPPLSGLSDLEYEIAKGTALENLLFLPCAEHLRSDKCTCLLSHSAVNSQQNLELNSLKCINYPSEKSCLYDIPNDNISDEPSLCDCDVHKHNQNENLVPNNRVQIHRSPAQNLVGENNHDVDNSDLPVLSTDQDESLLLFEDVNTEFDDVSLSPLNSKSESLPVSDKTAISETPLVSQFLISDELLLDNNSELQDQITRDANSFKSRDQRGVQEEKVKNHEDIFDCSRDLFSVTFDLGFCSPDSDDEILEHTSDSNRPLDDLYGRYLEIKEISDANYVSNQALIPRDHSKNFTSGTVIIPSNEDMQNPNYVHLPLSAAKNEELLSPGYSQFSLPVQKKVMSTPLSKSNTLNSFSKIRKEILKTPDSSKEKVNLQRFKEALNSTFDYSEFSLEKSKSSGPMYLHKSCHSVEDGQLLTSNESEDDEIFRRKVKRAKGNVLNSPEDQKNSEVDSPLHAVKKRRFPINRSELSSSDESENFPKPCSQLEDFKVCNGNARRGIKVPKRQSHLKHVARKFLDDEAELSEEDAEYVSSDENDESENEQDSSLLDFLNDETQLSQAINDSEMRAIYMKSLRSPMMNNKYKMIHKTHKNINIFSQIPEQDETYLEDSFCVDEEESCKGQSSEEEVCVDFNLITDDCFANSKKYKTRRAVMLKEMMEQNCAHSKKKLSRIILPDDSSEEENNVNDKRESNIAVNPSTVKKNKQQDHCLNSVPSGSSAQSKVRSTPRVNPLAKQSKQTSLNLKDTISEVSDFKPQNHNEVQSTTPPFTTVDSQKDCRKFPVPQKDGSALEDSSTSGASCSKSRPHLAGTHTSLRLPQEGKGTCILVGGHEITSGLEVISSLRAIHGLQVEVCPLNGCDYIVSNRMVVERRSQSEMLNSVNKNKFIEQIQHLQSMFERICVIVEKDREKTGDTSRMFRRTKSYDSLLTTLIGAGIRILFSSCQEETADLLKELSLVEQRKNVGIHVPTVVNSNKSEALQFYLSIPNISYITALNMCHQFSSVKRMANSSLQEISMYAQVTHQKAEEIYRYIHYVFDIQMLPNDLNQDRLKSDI
UniProt Q8N2Z9: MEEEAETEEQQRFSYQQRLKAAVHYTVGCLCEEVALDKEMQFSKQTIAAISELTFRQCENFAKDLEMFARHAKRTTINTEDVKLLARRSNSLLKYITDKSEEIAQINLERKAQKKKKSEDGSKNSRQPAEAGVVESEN

Results are given in words; binding and its absence hold for the method and conditions named. For some of these results: In cells and extracts the contact can be indirect. Some binding calls cover weakened binding; strength is not graded here.

B1: TONSL (natural protein, human (endogenous in HeLa), UniProt Q96HA7 1-1378, looked up)
chain: MSLERELRQLSKAKAKAQRAGQRREEAALCHQLGELLAGHGRYAEALEQHWQELQLRERADDPLGCAVAHRKIGERLAEMEDYPAALQHQHQYLELAHSLRNHTELQRAWATIGRTHLDIYDHCQSRDALLQAQAAFEKSLAIVDEELEGTLAQGELNEMRTRLYLNLGLTFESLQQTALCNDYFRKSIFLAEQNHLYEDLFRARYNLGTIHWRAGQHSQAMRCLEGARECAHTMRKRFMESECCVVIAQVLQDLGDFLAAKRALKKAYRLGSQKPVQRAAICQNLQHVLAVVRLQQQLEEAEGRDPQGAMVICEQLGDLFSKAGDFPRAAEAYQKQLRFAELLDRPGAERAIIHVSLATTLGDMKDHHGAVRHYEEELRLRSGNVLEEAKTWLNIALSREEAGDAYELLAPCFQKALSCAQQAQRPQLQRQVLQHLHTVQLRLQPQEAPETETRLRELSVAEDEDEEEEAEEAAATAESEALEAGEVELSEGEDDTDGLTPQLEEDEELQGHLGRRKGSKWNRRNDMGETLLHRACIEGQLRRVQDLVRQGHPLNPRDYCGWTPLHEACNYGHLEIVRFLLDHGAAVDDPGGQGCEGITPLHDALNCGHFEVAELLLERGASVTLRTRKGLSPLETLQQWVKLYRRDLDLETRQKARAMEMLLQAAASGQDPHSSQAFHTPSSLLFDPETSPPLSPCPEPPSNSTRLPEASQAHVRVSPGQAAPAMARPRRSRHGPASSSSSSEGEDSAGPARPSQKRPRCSATAQRVAAWTPGPASNREAATASTSRAAYQAAIRGVGSAQSRLGPGPPRGHSKALAPQAALIPEEECLAGDWLELDMPLTRSRRPRPRGTGDNRRPSSTSGSDSEESRPRARAKQVRLTCMQSCSAPVNAGPSSLASEPPGSPSTPRVSEPSGDSSAAGQPLGPAPPPPIRVRVQVQDHLFLIPVPHSSDTHSVAWLAEQAAQRYYQTCGLLPRLTLRKEGALLAPQDLIPDVLQSNDEVLAEVTSWDLPPLTDRYRRACQSLGQGEHQQVLQAVELQGLGLSFSACSLALDQAQLTPLLRALKLHTALRELRLAGNRLGDKCVAELVAALGTMPSLALLDLSSNHLGPEGLRQLAMGLPGQATLQSLEELDLSMNPLGDGCGQSLASLLHACPLLSTLRLQACGFGPSFFLSHQTALGSAFQDAEHLKTLSLSYNALGAPALARTLQSLPAGTLLHLELSSVAAGKGDSDLMEPVFRYLAKEGCALAHLTLSANHLGDKAVRDLCRCLSLCPSLISLDLSANPEISCASLEELLSTLQKRPQGLSFLGLSGCAVQGPLGLGLWDKIAAQLRELQLCSRRLCAEDRDALRQLQPSRPGPGECTLDHGSKLFFRRL
notes: TONSL, human, endogenous in HeLa cells; source: endogenous, HeLa
B1: the binding result is “binds weakly” in test [1]; “binds” in test [2]; “binds” in test [3]; “binds” in test [4]; “binds” in test [5].

B2: MMS22L (natural protein, human (endogenous in HeLa), UniProt Q6ZRQ5 1-1243, looked up)
chain: MENCSAASTFLTDSLELELGTEWCKPPYFSCAVDNRGGGKHFSGESYLCSGALKRLILNLDPLPTNFEEDTLEIFGIQWVTETALVNSSRELFHLFRQQLYNLETLLQSSCDFGKVSTLHCKADNIRQQCVLFLHYVKVFIFRYLKVQNAESHVPVHPYEALEAQLPSVLIDELHGLLLYIGHLSELPSVNIGAFVNQNQIKLFPPSWHLLHLHLDIHWLVLEILYMLGEKLKQVVYGHQFMNLASDNLTNISLFEEHCETLLCDLISLSLNRYDKVRSSESLMSDQCPCLCIKELWVLLIHLLDHRSKWFVSESFWNWLNKLLKTLLEKSSDRRRSSMPVIQSRDPLGFSWWIITHVASFYKFDRHGVPDEMRKVESNWNFVEELLKKSISVQGVILEEQLRMYLHCCLTLCDFWEPNIAIVTILWEYYSKNLNSSFSISWLPFKGLANTMKSPLSMLEMVKTCCCDKQDQELYKSSSSYTIFLCILAKVVKKAMKSNGPHPWKQVKGRIYSKFHQKRMEELTEVGLQNFFSLFLLLAAVAEVEDVASHVLDLLNFLKPAFVTSQRALIWKGHMAFLLMYAQKNLDIGVLAEKFSCAFREKAKEFLVSKNEEMVQRQTIWTLLSIYIDGVQEVFETSYCLYPSHEKLLNDGFSMLLRACRESELRTVLSFLQAVLARIRSMHQQLCQELQRDNVDLFVQSSLSAKERHLAAVASALWRHFFSFLKSQRMSQVVPFSQLADAAADFTLLAMDMPSTAPSDFQPQPVISIIQLFGWDDIICPQVVARYLSHVLQNSTLCEALSHSGYVSFQALTVRSWIRCVLQMYIKNLSGPDDLLIDKNLEEAVEKEYMKQLVKLTRLLFNLSEVKSIFSKAQVEYLSISEDPKKALVRFFEAVGVTYGNVQTLSDKSAMVTKSLEYLGEVLKYIKPYLGKKVFSAGLQLTYGMMGILVKSWAQIFATSKAQKLLFRIIDCLLLPHAVLQQEKELPAPMLSAIQKSLPLYLQGMCIVCCQSQNPNAYLNQLLGNVIEQYIGRFLPASPYVSDLGQHPVLLALRNTATIPPISSLKKCIVQVIRKSYLEYKGSSPPPRLASILAFILQLFKETNTDIYEVELLLPGILKCLVLVSEPQVKRLATENLQYMVKACQVGSEEEPSSQLTSVFRQFIQDYGMRYYYQVYSILETVATLDQQVVIHLISTLTQSLKDSEQKWGLGRNIAQREAYSKLLSHLGQMGQDEMQRLENDNT
notes: MMS22L, human, endogenous in HeLa cells; source: endogenous, HeLa
In the case of B2, the binding entry in test [1] is reported as “binds weakly”; in test [2], “binds”; in test [3], “binds”; in test [4] it was “binds”; in test [5] it was “binds”.

The values are drawn from article doi:10.1101/2025.03.07.642025, “The TONSL-MMS22L complex and FANCM form an interdependent complex on chromatin to counter replication stress” (bioRxiv, 2025).
